Data on 28 molecules can be found in PubChem BioAssay AID276 (DTP/NCI, 2004).

The list shows only some results of the screen, not a fair sample: it is rich in T/C values a quarter to a half above the control, in often repeated tests (any T/C) and in doses without a T/C. Further doses and runs are listed elsewhere. T/C gives the treated animals as a percentage of the vehicle group. Some entries give survivors of the animals treated and no T/C: the source files T/C as zero there, which appears to mark a toxic dose or a test without result, not a measured value. Some survivor counts are full or nearly so, which does not show that the dose was tolerated: survival well below the control is almost never listed, so the zero probably covers shortened survival too. Counts of survivors are from the toxicity check (mostly the fifth day) where no day follows; animals may have died later. Schedule codes are those of the source, read here as Q, the interval in days (D) or hours (H), X, the number of doses. Some entries hold several experiments; the values are given in rising order. Where survival is the endpoint, the PubChem record calls one and a half times the control and up active, and a quarter to a half above the control has no call in these data; cut-offs in other NCI protocols can differ. Some T/C values carry the count of animals alive at the toxicity check (mostly the fifth day); where none is given, no animal had died by that day.

This test relates to B6C3F1 mice, Lewis lung carcinoma iv, survival T/C. Description: NCI In Vivo Anticancer Drug Screen. Data for tumor model Lewis Lung Carcinoma (intravenous) in B6C3F1 mice. The conditions noted are these: T/C endpoint: median survival time, higher T/C = longer survival. The procedure:
The antitumor activity of compounds was measured in mice bearing transplantable tumors. Survival or tumor size were measured and the results are expressed as the measurement made in the treated group (T) divided by the measurement made in the vehicle treated control group (C). The tumor model used in this assay is Lewis Lung Carcinoma (intravenous) in B6C3F1 mice

[1] abbreviates: dose: 25.0 mg/kg/injection, schedule: Q01DX009 (ip), vehicle: saline with Tween-80.
Setting [2] is: dose: 50.0 mg/kg/injection, schedule: Q01DX009 (ip), vehicle: saline with Tween-80.
Where [3] appears, read: dose: 100.0 mg/kg/injection, schedule: Q01DX009 (ip), vehicle: saline with Tween-80.
Where [4] appears, read: dose: 200.0 mg/kg/injection, schedule: Q01DX009 (ip), vehicle: saline with Tween-80.
Where [5] appears, read: dose: 200.0 mg/kg/injection, schedule: Q01DX009 (ip), vehicle: Klucel (hydroxypropylcellulose) (HPC).
[6] abbreviates: dose: 200.0 mg/kg/injection, schedule: Q01DX009 (ip), vehicle: saline.
Where [7] appears, read: dose: 400.0 mg/kg/injection, schedule: Q01DX009 (ip), vehicle: saline.
[8] abbreviates: dose: 400.0 mg/kg/injection, schedule: Q01DX009 (ip), vehicle: saline with Tween-80.
The mark [9] stands for this setting: dose: 800.0 mg/kg/injection, schedule: Q01DX009 (ip), vehicle: saline.
The mark [10] stands for this setting: dose: 200.0 mg/kg/injection, schedule: Q01DX009 (ip), vehicle: suspension in saline.
[11] abbreviates: dose: 400.0 mg/kg/injection, schedule: Q01DX009 (ip), vehicle: suspension in saline.
[12] abbreviates: dose: 12.5 mg/kg/injection, schedule: Q01DX009 (ip), vehicle: saline with Tween-80.
[13] abbreviates: dose: 50.0 mg/kg/injection, schedule: Q01DX009 (ip), vehicle: other.

In the case of `Nc1nnc[se]1`, the T/C under setting [1] was 135 % of control. Also, the survivor count is 10 of 10 under setting [2] and 9 of 10 under setting [3].

Turning to `CN(C)CCOc1ccc2c(c1)C/C(=C/c1ncc([N+](=O)[O-])n1C)C2=O`, the survivor count by setting is: under setting [3], 5 of 5; under setting [4], 9 of 10.

Consider `CCc1ccccc1N1CCN(C(=O)c2cc(OC)c(OC)c(OC)c2)CC1`, for which, under setting [5], the survivor count is recorded as 10 of 10.

With `O=NN(CCF)C(=O)NC1C(O)CCCC1O` (centres undefined), where the note is “dose: 5.0 mg/kg/injection, schedule: Q01DX009 (ip), vehicle: saline”, the T/C is 142 % of control. Besides, the survivor count (dose: 40.0 mg/kg/injection, schedule: Q01DX009 (ip), vehicle: saline) is on record as 0 of 10 on day 9.

For `CCCCn1cnc2c(=S)nc[nH]c21`, the survivor count was 10 of 10 (dose: 100.0 mg/kg/injection, schedule: Q01DX009 (ip), vehicle: saline); 10 of 10 under setting [6]; 10 of 10 under setting [7].

As for `CNC(=O)n1c(N)nc(-c2ccccc2)c1-c1ccccc1`, under setting [3], the survivor count was 2 of 10.

For the molecule `O=C(C/C(=N\C(=S)Nc1cc(C(F)(F)F)ccc1Cl)NO)N1CCCC1`, the survivor count by setting is: under setting [4], 0 of 10; under setting [8], 0 of 10.

For `CNC=O`, the survivor count by setting is: under setting [7], 8 of 10; under setting [9], 6 of 10; (dose: 1600.0 mg/kg/injection, schedule: Q01DX009 (ip), vehicle: saline) 7 of 10; (dose: 3200.0 mg/kg/injection, schedule: Q01DX009 (ip), vehicle: saline) 0 of 10.

Take `O=C(O)C(CSC(c1ccccc1)(c1ccccc1)c1ccccc1)N=Cc1cccs1` (centres undefined): the survivor count reads like this: (dose: 100.0 mg/kg/injection, schedule: Q01DX009 (ip), vehicle: suspension in saline) 9 of 10; under setting [10], 10 of 10; under setting [11], 2 of 10.

With `O=C1NC(O)c2ccccc2O1` (centres undefined), the survivor count was 8 of 10 (dose: 12.5 mg/kg/injection, schedule: Q01DX009 (ip), vehicle: suspension in saline) and 4 of 10 under setting [11].

For the molecule `NC(=O)c1ccc[n+](Cc2c(Cl)cccc2Cl)c1`, the survivor count (dose: 80.0 mg/kg/injection, schedule: Q01DX009 (ip), vehicle: saline) is 4 of 9.

On to `COC1CC(C)C(OC)C2=CC(=O)C=C(NC(=O)/C(C)=C/C=C\C(C)C(OC(N)=O)/C(C)=C\C(C)C1OC)C2=O` (centres undefined), for which the survivor count (dose: 20.0 mg/kg/injection, schedule: Q01DX009 (ip), vehicle: saline + Tween-80 + alcohol) is recorded as 3 of 10.

As to `COc1cc(Cl)ccc1C`, the survivor count under setting [8] is 3 of 10.

As to `CCS/C(SC)=C(/c1ccccc1)[P+](c1ccccc1)(c1ccccc1)c1ccccc1`, the survivor count was 7 of 10 (dose: 3.0 mg/kg/injection, schedule: Q01DX009 (ip), vehicle: Klucel (hydroxypropylcellulose) (HPC)); 1 of 10 (dose: 6.0 mg/kg/injection, schedule: Q01DX009 (ip), vehicle: Klucel (hydroxypropylcellulose) (HPC)); 0 of 10 (dose: 12.0 mg/kg/injection, schedule: Q01DX009 (ip), vehicle: Klucel (hydroxypropylcellulose) (HPC)); 0 of 10 (dose: 24.0 mg/kg/injection, schedule: Q01DX009 (ip), vehicle: Klucel (hydroxypropylcellulose) (HPC)).

On to `CCC1CCCCN1C(=S)N/N=C(\C)c1ccccn1` (centres undefined), for which the survivor count is reported as 8 of 10 under setting [2] and 0 of 10 under setting [3].

As for `CCCN1COC(OCC)C(C)(C)C1` (centres undefined), the survivor count is 2 of 10 and 3 of 10 under setting [4]; 0 of 10 under setting [8].

For `COc1cc([C@@H]2c3cc4c(cc3[C@@H](OC3OC5COC(C)OC5C(O)C3O)[C@H]3COC(=O)[C@H]23)OCO4)cc(OC)c1O` (some centres undefined), the T/C is 125 % of control (dose: 4.0 mg/kg/injection, schedule: Q01DX009 (ip), vehicle: suspension in saline); 132 % of control (dose: 8.0 mg/kg/injection, schedule: Q01DX009 (ip), vehicle: Klucel (hydroxypropylcellulose) (HPC)); 147 % of control (dose: 8.0 mg/kg/injection, schedule: Q01DX009 (ip), vehicle: suspension in saline). Also, the survivor count (dose: 32.0 mg/kg/injection, schedule: Q01DX009 (ip), vehicle: suspension in saline) is reported as 10 of 10.

As for `C[n+]1c2cc(N)ccc2cc2ccc(N)cc21`, the survivor count (dose: 24.0 mg/kg/injection, schedule: Q01DX009 (ip), vehicle: saline) is 6 of 10.

As to `COc1cccc2c1C(=O)c1c(O)c3c(c(O)c1C2=O)C[C@@](O)(C(C)=O)C[C@@H]3OC1CC(N(Cc2ccccc2)Cc2ccccc2)C(O)C(C)O1` (some centres undefined), the T/C was 143 % of control (dose: 6.0 mg/kg/injection, schedule: Q01DX009 (ip), vehicle: water); 134 % of control (dose: 12.0 mg/kg/injection, schedule: Q01DX009 (ip), vehicle: saline with Tween-80); 130 % of control (dose: 12.0 mg/kg/injection, schedule: Q01DX009 (ip), vehicle: water); 136 % of control under setting [12]. Moreover, the survivor count reads like this: under setting [12], 9 of 10; (dose: 24.0 mg/kg/injection, schedule: Q01DX009 (ip), vehicle: saline with Tween-80) 10 of 10; (dose: 24.0 mg/kg/injection, schedule: Q01DX009 (ip), vehicle: water) 10 of 10; under setting [1], 10 of 10; (dose: 48.0 mg/kg/injection, schedule: Q01DX009 (ip), vehicle: saline with Tween-80) 10 of 10; (dose: 48.0 mg/kg/injection, schedule: Q01DX009 (ip), vehicle: water) 10 of 10. The survivor count by setting is: under setting [2], 8 of 10; under setting [3], 3 of 10.

With `Cc1ccoc1`, the survivor count (dose: 133.3 mg/kg/injection, schedule: Q03HX027 (ip), vehicle: saline with Tween-80) is 9 of 10.

Regarding `Cc1cc(NC(=S)SCc2ccc3c(c2)OCO3)ccc1Cl`, the survivor count under setting [5] was 4 of 10 and the survivor count (dose: 400.0 mg/kg/injection, schedule: Q01DX009 (ip), vehicle: Klucel (hydroxypropylcellulose) (HPC)) is reported as 0 of 10.

`C1CN1c1nc(N2CC2)nc(N2CC2)n1`: where the note is “dose: 2.0 mg/kg/injection, schedule: Q01DX009 (ip), vehicle: suspension in saline”, the survivor count was 10 of 10.

As for `Cc1ccc2nc(-c3ccc4nc(-c5ccc(N=Nc6ccc(-c7nc8ccc(-c9nc%10ccc(C)c(S(=O)(=O)O)c%10s9)cc8s7)cc6)cc5)sc4c3)sc2c1S(=O)(=O)O`, the survivor count was 9 of 10 under setting [10] and 1 of 10 under setting [11].

For the molecule `Nc1nc(N)c2cc(S(=O)(=O)c3ccccc3)ccc2n1`, the survivor count is on record as 9 of 10 under setting [4]; 10 of 10 under setting [8]; 10 of 10 (dose: 800.0 mg/kg/injection, schedule: Q01DX009 (ip), vehicle: saline with Tween-80).

As for `Nc1nc(N)c2c(ccc3c2ccn3Cc2cccc([N+](=O)[O-])c2)n1`, the survivor count under setting [12] is 8 of 10 and the survivor count under setting [1] is given as 9 of 10.

With `O=Cc1c(O)c2ccccc2[nH]c1=O`, the survivor count under setting [4] was 9 of 10.

As to `N=c1ccn2c(n1)OC1C(O)C(CO)OC12` (centres undefined), the T/C is, setting by setting: under setting [6], 136 % of control; under setting [7], 133 % of control; under setting [9], 136 % of control.

For the molecule `C[C@@](O)(/C=C/[C@H]1CC=CC(=O)O1)[C@@H](C[C@@H](O)\C=C/C=C\C=C\CO)OP(=O)(O)O`, under “dose: 25.0 mg/kg/injection, schedule: Q01DX009 (ip), vehicle: other”, the T/C was 130 % of control. Under setting [13], the T/C was 125 % of control [9 of 10 alive] and the survivor count is 3 of 10.
